According to paper doi:10.1101/2020.11.22.393603 (bioRxiv, 2020):
These are yes or no findings as the source states them, for the method shown. Binding seen in cells or lysates may run through a third protein. Some entries that bind do so weakly or less than the wild type. Sequences can lack the tags named with a protein.

T1: LSD1-sGFP (35S:LSD1-sGFP, Arabidopsis leaf protoplasts) (Arabidopsis thaliana) (UniProt P94077)
T1 sequence: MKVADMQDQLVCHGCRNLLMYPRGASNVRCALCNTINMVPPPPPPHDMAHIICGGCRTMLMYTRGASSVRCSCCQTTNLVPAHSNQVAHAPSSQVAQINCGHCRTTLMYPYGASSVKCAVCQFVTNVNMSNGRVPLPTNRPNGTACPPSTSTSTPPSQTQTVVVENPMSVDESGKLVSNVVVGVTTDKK

T2: LSD1-YFP^N (Arabidopsis thaliana) (UniProt P94077)
T2 sequence: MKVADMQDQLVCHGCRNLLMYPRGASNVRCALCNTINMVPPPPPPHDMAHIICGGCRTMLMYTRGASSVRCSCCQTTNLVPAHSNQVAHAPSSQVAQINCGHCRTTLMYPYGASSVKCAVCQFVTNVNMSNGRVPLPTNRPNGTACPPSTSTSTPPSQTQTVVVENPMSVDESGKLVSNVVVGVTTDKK


Columns and labels:
[1] = biological target: T1, LSD1-sGFP (35S:LSD1-sGFP, Arabidopsis leaf protoplasts) (Arabidopsis thaliana); assay: co-IP
[2] = biological target: T2, LSD1-YFP^N (Arabidopsis thaliana); assay: split reporter

| binding [1] | binding [2] | Binder |
| --- | --- | --- |
| binds |  | LSD1-sGFP (35S:LSD1-sGFP, Arabidopsis leaf protoplasts) (protein, UniProt P94077 1-189) MKVADMQDQLVCHGCRNLLMYPRGASNVRCALCNTINMVPPPPPPHDMAHIICGGCRTMLMYTRGASSVRCSCCQTTNLVPAHSNQVAHAPSSQVAQINCGHCRTTLMYPYGASSVKCAVCQFVTNVNMSNGRVPLPTNRPNGTACPPSTSTSTPPSQTQTVVVENPMSVDESGKLVSNVVVGVTTDKK |
|  | binds | LSD1-YFP^N (protein, UniProt P94077 1-189) MKVADMQDQLVCHGCRNLLMYPRGASNVRCALCNTINMVPPPPPPHDMAHIICGGCRTMLMYTRGASSVRCSCCQTTNLVPAHSNQVAHAPSSQVAQINCGHCRTTLMYPYGASSVKCAVCQFVTNVNMSNGRVPLPTNRPNGTACPPSTSTSTPPSQTQTVVVENPMSVDESGKLVSNVVVGVTTDKK |
